Laboratory results taken from the supplement of paper PMC8728848.
This is one part of the list.

How the values were obtained:
Assay in all cases: glycan array binding signal (z-score within array); higher = stronger binding
Details in all cases: glycan notation: IUPAC condensed, linker removed
Gal(a1-3)Gal(b1-4)GlcNAc = target: Gal(a1-3)Gal(b1-4)GlcNAc
Outline: (§1)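 Arrays were curated from the Consortium for Functional Glycomics database, 3228 in total, and kept only where the protein sequence was available. Binding is expressed as a within-array Z-score. This score was averaged across arrays of the same protein sequence at different concentrations or buffers and across linkers, and negative values can be read as non-binding.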

[1] = target: Gal(a1-3)Gal(b1-4)GlcNAc(b1-2)Man
Outline: as §1

[2] = target: Gal(a1-3)Gal(b1-4)GlcNAc(b1-2)Man(a1-3)[Gal(a1-3)Gal(b1-4)GlcNAc(b1-2)Man(a1-6)]Man(b1-4)GlcNAc(b1-4)GlcNAc
Outline: as §1

[3] = target: Gal(a1-3)Gal(b1-4)GlcNAc(b1-3)GalNAc
Outline: as §1

[4] = target: Gal(a1-3)Gal(b1-4)GlcNAc(b1-6)GalNAc
Outline: as §1

[5] = target: Gal(a1-3)Gal(b1-4)[Fuc(a1-3)]GlcNAc
Outline: as §1

[6] = target: Gal(a1-3)Gal(b1-4)[Fuc(a1-3)]GlcNAc(b1-2)Man(a1-3)[Gal(a1-3)Gal(b1-4)[Fuc(a1-3)]GlcNAc(b1-2)Man(a1-6)]Man(b1-4)GlcNAc(b1-4)GlcNAc
Outline: as §1

Gal(a1-3)GalNAc = target: Gal(a1-3)GalNAc
Outline: as §1

[7] = target: Gal(a1-3)[Gal(a1-4)]Gal(b1-4)GlcNAc
Outline: as §1

[8] = target: Gal(a1-4)Gal(b1-3)GlcNAc(b1-2)Man(a1-3)[Gal(a1-4)Gal(b1-3)GlcNAc(b1-2)Man(a1-6)]Man(b1-4)GlcNAc(b1-4)GlcNAc
Outline: as §1

Gal(a1-4)Gal(b1-4)Glc = target: Gal(a1-4)Gal(b1-4)Glc
Outline: as §1

Gal(a1-4)Gal(b1-4)GlcNAc = target: Gal(a1-4)Gal(b1-4)GlcNAc
Outline: as §1

[9] = target: Gal(a1-4)Gal(b1-4)GlcNAc(b1-2)Man(a1-3)[Gal(a1-4)Gal(b1-4)GlcNAc(b1-2)Man(a1-6)]Man(b1-4)GlcNAc(b1-4)GlcNAc
Outline: as §1

[10] = target: Gal(a1-4)Gal(b1-4)GlcNAc(b1-3)Gal(b1-4)Glc
Outline: as §1

Gal(a1-4)GlcNAc = target: Gal(a1-4)GlcNAc
Outline: as §1

Gal(a1-6)Glc = target: Gal(a1-6)Glc
Outline: as §1

Gal(b1-2)Gal = target: Gal(b1-2)Gal
Outline: as §1

Gal(b1-3)Gal = target: Gal(b1-3)Gal
Outline: as §1

Gal(b1-3)Gal(b1-4)GlcNAc = target: Gal(b1-3)Gal(b1-4)GlcNAc
Outline: as §1

Gal(b1-3)GalNAc = target: Gal(b1-3)GalNAc
Outline: as §1

[11] = target: Gal(b1-3)GalNAc(a1-3)[Fuc(a1-2)]Gal(b1-4)Glc
Outline: as §1

[12] = target: Gal(b1-3)GalNAc(a1-3)[Fuc(a1-2)]Gal(b1-4)GlcNAc
Outline: as §1

Gal(b1-3)GalNAc(b1-3)Gal = target: Gal(b1-3)GalNAc(b1-3)Gal
Outline: as §1

[13] = target: Gal(b1-3)GalNAc(b1-3)Gal(a1-4)Gal(b1-4)Glc
Outline: as §1

[14] = target: Gal(b1-3)GalNAc(b1-4)Gal(b1-4)Glc
Outline: as §1

[15] = target: Gal(b1-3)GalNAc(b1-4)[Neu5Ac(a2-3)]Gal(b1-4)Glc
Outline: as §1

Gal(b1-3)GlcNAc = target: Gal(b1-3)GlcNAc
Outline: as §1

[16] = target: Gal(b1-3)GlcNAc(a1-3)Gal(b1-4)GlcNAc
Outline: as §1

[17] = target: Gal(b1-3)GlcNAc(a1-6)Gal(b1-4)GlcNAc
Outline: as §1

Gal(b1-3)GlcNAc(b1-2)Man = target: Gal(b1-3)GlcNAc(b1-2)Man
Outline: as §1

[18] = target: Gal(b1-3)GlcNAc(b1-2)Man(a1-3)[Gal(b1-3)GlcNAc(b1-2)Man(a1-6)]Man(b1-4)GlcNAc(b1-4)GlcNAc
Outline: as §1

[19] = target: Gal(b1-3)GlcNAc(b1-2)Man(a1-3)[Gal(b1-3)GlcNAc(b1-2)Man(a1-6)]Man(b1-4)GlcNAc(b1-4)[Fuc(a1-6)]GlcNAc
Outline: as §1

[20] = target: Gal(b1-3)GlcNAc(b1-2)Man(a1-3)[GlcNAc(b1-4)][Gal(b1-3)GlcNAc(b1-2)Man(a1-6)]Man(b1-4)GlcNAc(b1-4)GlcNAc
Outline: as §1

[21] = target: Gal(b1-3)GlcNAc(b1-2)[Gal(b1-3)GlcNAc(b1-6)]Man(a1-6)[Gal(b1-3)GlcNAc(b1-2)Man(a1-3)]Man(b1-4)GlcNAc(b1-4)GlcNAc
Outline: as §1

[22] = target: Gal(b1-3)GlcNAc(b1-3)Gal(b1-3)GlcNAc
Outline: as §1

[23] = target: Gal(b1-3)GlcNAc(b1-3)Gal(b1-4)Glc
Outline: as §1

[24] = target: Gal(b1-3)GlcNAc(b1-3)Gal(b1-4)GlcNAc
Outline: as §1

B1: HA-00510 (Pseudomonas aeruginosa), Q02V39_PSEAB (protein)
chain: GVPIVNIATPNGAGLSNNHFRDYNVGANGLILNNATGKTQGTQLGGIILGNPNLKGQAAQVILNQVTGGNRSTLAGYTEVAGQSARVIVANPHGITCQGCGFINTPRATLTTGKPIMDGQRLERFQVDGGDIVVEGAELNVGNLEQFDLITRSAKLNAKLYAKNLNIVTGRNDVQADSLQATPRAADGSEKPQLAIDSSALGGMYAGAIRLVGTEQGVGVKLAGDMAASGGDIRIDASGKLSLAQASSQGDLKIAAQAVELNGKTYAGGSAEIRSAEELVNRQS
Gal(a1-3)Gal(b1-4)GlcNAc
  glycan array binding signal (z-score): 0.209
[1]
  glycan array binding signal (z-score): -1.3
[2]
  glycan array binding signal (z-score): -0.397
[3]
  glycan array binding signal (z-score): -0.593
[4]
  glycan array binding signal (z-score): -0.007
[5]
  glycan array binding signal (z-score): 0.184
[6]
  glycan array binding signal (z-score): 1.94
Gal(a1-3)GalNAc
  glycan array binding signal (z-score): -0.17
[7]
  glycan array binding signal (z-score): 0.326
[8]
  glycan array binding signal (z-score): -0.302
Gal(a1-4)Gal(b1-4)Glc
  glycan array binding signal (z-score): -1.36
Gal(a1-4)Gal(b1-4)GlcNAc
  glycan array binding signal (z-score): 0.581
[9]
  glycan array binding signal (z-score): 1.27
[10]
  glycan array binding signal (z-score): 0.322
Gal(a1-4)GlcNAc
  glycan array binding signal (z-score): -1.73
Gal(a1-6)Glc
  glycan array binding signal (z-score): -0.068
Gal(b1-2)Gal
  glycan array binding signal (z-score): -0.657
Gal(b1-3)Gal
  glycan array binding signal (z-score): -0.482
Gal(b1-3)Gal(b1-4)GlcNAc
  glycan array binding signal (z-score): 0.014
Gal(b1-3)GalNAc
  glycan array binding signal (z-score): -0.011
[11]
  glycan array binding signal (z-score): 0.868
[12]
  glycan array binding signal (z-score): -0.463
Gal(b1-3)GalNAc(b1-3)Gal
  glycan array binding signal (z-score): -0.532
[13]
  glycan array binding signal (z-score): -0.424
[14]
  glycan array binding signal (z-score): -0.666
[15]
  glycan array binding signal (z-score): -0.652
Gal(b1-3)GlcNAc
  glycan array binding signal (z-score): -0.882
[16]
  glycan array binding signal (z-score): 0.282
[17]
  glycan array binding signal (z-score): 0.129
Gal(b1-3)GlcNAc(b1-2)Man
  glycan array binding signal (z-score): -0.118
[18]
  glycan array binding signal (z-score): -0.795
[19]
  glycan array binding signal (z-score): 0.898
[20]
  glycan array binding signal (z-score): 0.05
[21]
  glycan array binding signal (z-score): -0.555
[22]
  glycan array binding signal (z-score): -0.934
[23]
  glycan array binding signal (z-score): -0.043
[24]
  glycan array binding signal (z-score): 0.366
